Laboratory results published in patent US20240350447A1, “DELIVERY METHODS FOR TREATING BRAIN AND CENTRAL NERVOUS SYSTEM DISEASES” (JENIVISION INC., priority 2021, published 2024).
At least one structure is not confirmed: it was looked up by name or label, or the drawing left a doubt.

Columns and labels:
[1] = Biodistribution of JV-DE1 after periorbital skin (NIODP) application to one eye; type: in vivo, Cynomolgus monkeys
Method: An experiment was performed to determine the biodisposition of 4,5-dihydro-N-[4-[[4-(1-methylethoxy) phenyl]methyl] phenyl]-1H-imadazol-2-amine (JV-DE1) following topical application to the periorbital skin that surrounds the anterior portion of the globe was performed.
165.4 μg of JV-DE1, a synthesized chemical compound, was applied to the right eye (OD) of Cynomolgus monkeys via NIODP. The monkeys were restrained from rubbing their eyes for 2 hours post dose and closely monitored by experimenter(s) to prevent cross-contamination of the untreated eye, yet JV-DE1 was quickly found in the undosed upper eyelid (733.4 ng/g), retina (5.2 ng/g) and Vitreous humor (1.03 ng/mL) as early as 0.5-hour post dose. Throughout the 3, 6, and 24-hour post dose points, low levels of JV-DE1 was detected in the retina at 5.5 ˜ 45.5 ng/g of the dosed eye, and 1.4 ˜ 6.3 ng/g of the undosed eye. The ratio of JV-DE1 in undoseD retina vs. the dosed retina was below 25.5% at all post dose time points tested.

[2] = JV-DE1 in cornea and retina after single eye drop administration; type: in vivo, New Zealand Rabbits; conditions: 120 μg/eye delivered as eye drops
Excerpt: NIODP may be more efficient than topical eye drops for corneal delivery to treat corneal disorders, such as dry disease. […] Accordingly, NIODP may be used to deliver other compounds (such as DHA) to the cornea to treat corneal diseases, such as dry eye.

CC(C)Oc1ccc(Cc2ccc(NC3=NCCN3)cc2)cc1 [JV-DE1, 4,5-dihydro-N-[4-[[4-(1-methylethoxy)phenyl]methyl]phenyl]-1H-imadazol-2-amine]
Cmax of JV-DE1 in monkey cornea ([1]; 165.4 μg per eye via NIODP): 23929.5 ng/g | Cmax of JV-DE1 in dosed periorbital skin ([1]; 165.4 μg to OD via NIODP): 32454.7 ng/g | Cmax of JV-DE1 in periorbital skin of the undosed eye ([1]; 165.4 μg to OD via NIODP): 1637.0 ng/g | Cmax of JV-DE1 in rabbit cornea [2]: 12124.85 ng/g
